# Values quoted from earlier work as cited in patent US20040033257A1, “Pharmaceutical formulation in a drug delivery system and process for preparing the same” (Strides Inc., priority 2002, published 2004).
# Test system: histamine skin wheal
# Conditions: human; single and repeated doses
smiles,measurement,value
"CCOC(=O)N1CCC(=C2c3ccc(Cl)cc3CCc3cccnc32)CC1 [Loratadine, ethyl 4-(8-chloro-5,6-dihydro-11-H-benzo[5,6]cyclohepta[1,2-b]pyridin-11-ylidine)-1-piperadine carboxylate]",antihistamine effect beginning (onset),1 to 3 h
